Data on one substance can be found in patent publication US20240148895A1 (Eisai R&D Management Co., Ltd., priority 2022, published 2024).

This data set is described as follows: Fmoc solid-phase peptide synthesis; 2-chlorotrityl chloride resin; HATU. As to conditions: whole synthesis, scale 50 mmol, formate.

The substance “(10S,17S,20S)-10-((((9H-Fluoren-9-yl)methoxy)carbonyl)amino)-17-isopropyl-2,2-dimethyl-4,11,15,18-tetraoxo-20-(3-ureidopropyl)-3-oxa-5,12,16,19-tetraazahenicosan-21-oic acid” yielded a crude mass of 36.0 g.
